Test system: MCF-7 cell line
Assay: Receptor binding of radioiodinated ligand to MCF-7 cells, Scatchard analysis
Design: species or system human
Conditions: MCF-7, Scatchard analysis
Protocol: FIG. 20 is a graphical representation showing Scatchard analyses of the saturation isotherms of LIF and OSM binding to breast cancer cell lines. Cells were incubated with various concentrations of labelled or unlabelled ligand in the presence or absence of a 10-100 fold excess of unlabelled ligand. After 18 hr on ice, bound and free ligand were separated by centrifugation through bovine calf serum. Bound and free ^125I-ligand was quantitated in a γ-counter and the data was depicted as a Scatchard transformation. Data was normalised for cell number and is shown as binding to 10^6 cells. A) Saturation isotherm of LIF binding to the MCF-7 cell line. […] B) Saturation isotherm of OSM binding to the MDA-MB-231 cell line.
Receptor binding assays were performed using radioiodinated LIF (^125I-LIF) and OSM (^125I-OSM). The radioiodination of LIF and OSM and binding assays were essentially performed as previously described (Hilton et al., 1991; Hilton and Nicola, 1992). […] The pellet and supernatant were subsequently counted in a γ-counter. […] Number of cell surface receptors and dissociation constant were calculated by Scatchard analysis.

| Substance | estimated receptors per cell [receptors per cell] |
| --- | --- |
| Leukemia Inhibitory Factor [LIF] | 57 |
| oncostatin M [OSM] | 990 |

From patent US20020106347A1, “Cytokines and their use in treatment and/or prophylaxis of breast cancer” (priority 1995, published 2002)
